Source: patent US20210139935A1
No constants are given. Whether binding was seen depends on the method and setting. Some results given as binding are weak or reduced against the parent protein; the word gives no strength.

Biological target: T1, human CD70 (human) (UniProt P32970)
T1 sequence (looked up): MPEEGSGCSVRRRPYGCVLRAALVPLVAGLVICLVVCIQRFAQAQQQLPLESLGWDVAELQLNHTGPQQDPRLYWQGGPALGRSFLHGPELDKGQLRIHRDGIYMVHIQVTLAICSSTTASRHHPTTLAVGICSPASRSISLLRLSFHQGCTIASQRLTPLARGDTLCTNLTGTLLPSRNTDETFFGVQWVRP
Assay: immunohistochemistry on a panel of 32 human tissues, antibody at 2.5 µg/mL and 10.0 µg/mL; robust staining in the positive control (human renal cell carcinoma tumor cells)

binding: binds
B1: the antibody from which the scFv portion of CTX130 was derived (antibody, V domains shown)
VH: QVQLVQSGAEVKKPGASVKVSCKASGYTFTNYGMNWVRQAPGQGLKWMGWINTYTGEPTYADAFKGRVTMTRDTSISTAYMELSRLRSDDTAVYYCARDYGDYGMDYWGQGTTVTVSS
VL: DIVMTQSPDSLAVSLGERATINCRASKSVSTSGYSFMHWYQQKPGQPPKLLIYLASNLESGVPDRFSGSGSGTDFTLTISSLQAEDVAVYYCQHSREVPWTFGQGTKVEIK
